# Test results: EP0123485A1, “Colon-specific prodrug, the preparation and uses thereof” (priority 1983, dated 1984)
# At least one read-out could not be matched to a standard name with certainty.
# Assay: Recovery of steroid glycoside and free steroid from intestinal contents and tissues after intragastric administration
# Type: in vivo, Sprague-Dawley rats
# Settings: rat, 7.5 mg glucoside intragastric; estimated from unhydrolyzed glucoside in lower small intestine at 4 h; 240 min
# Description: Male, Sprague-Dawley rats (ca 250 g) were maintained on laboratory rat chow and water ad lib. These rats were fasted overnight (16 hr.) prior to administration of glucoside or free steroid. Water bottles were removed from the cages at least 30 min prior to drug administration. Prednisolone glucoside, 2, (7.5 mg) or dexamethasone glucoside, 1, (7.5 mg) was administered by gastric intubation as a solution (0.5 mL) of water/95% ethanol (3:1). Prednisolone, 4, (5.25 mg) or dexamethasone, 3, (5.1 mg) was administered as a solution (0.5 mL) of water/95% ethanol (1:1). After the appropriate interval of time -3, 4, 5 or 6 hr.- the animals were sacrificed by carbon dioxide anesthesia followed by thoractomy. The small intestine and cecum were removed and cut into segments. Contents were separated from the tissues by rinsing the segments with cold, 0.9% saline (5.0 mL). The contents were immediately diluted to 30 mL with methanol. The tissues were suspended in 0.01 M KH2P04 (5.0 mL). Then an internal standard, either prednisolone, 4, or dexamethasone, 3, depending on the experimental steroid, was added to all the samples. Both the contents and tissues were then homogenized with a Polytron Homogenizer (Brinkman Inst. Co.) at med. speed for 1-2 min. The contents were then diluted to 40 mL total volume with methanol. The tissues were diluted to 25 mL total volume with methanol. […]
smiles,measurement,value
"CC12C=CC(=O)C=C1CCC1C2C(O)CC2(C)C1CCC2(O)C(=O)COC1OC(CO)C(O)C(O)C1O [Compound 2, 11 beta, 17 alpha-Dihydroxy-3, 20-dioxopregna-l, 4-dien-21-yl beta-D-glucopyranoside]",part of an oral dose of glucoside that reached (was delivered to) the cecum,14%
